From publication PMC7980560
No constants are given. Whether binding was seen depends on the method and setting. In cells and extracts the contact can be indirect. Binding can be weak; no strength is given. Sequences can lack the tags named with a protein.

Target: T1, HA-tagged Noggin-1 (wild type) (zebrafish) (UniProt Q9W741)
T1 sequence: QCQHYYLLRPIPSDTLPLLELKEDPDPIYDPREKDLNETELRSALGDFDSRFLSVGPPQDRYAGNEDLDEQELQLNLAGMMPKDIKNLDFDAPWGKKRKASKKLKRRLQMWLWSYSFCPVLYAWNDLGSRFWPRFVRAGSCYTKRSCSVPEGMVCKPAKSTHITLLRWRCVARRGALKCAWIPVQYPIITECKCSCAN
Assay: co-IP; GFP-tagged Zisp and HA-tagged Noggin (nog1, nog2, nog3) co-transfected (text: RPE1 cells; legend: embryos); immunoprecipitation with anti-HA, western blot for GFP; lysis in 50 mM Tris-HCl pH 7.5, 150 mM NaCl, 1% Triton

binding: binds
Substance: GFP-tagged Zisp (zebrafish DHHC palmitoyl acyltransferase Zisp/Zdhhc8) (enzyme)
